{"source": "PubChem BioAssay AID250", "about": "(DTP/NCI, 2004)", "system": "BDF1 mice, L1210 leukemia sc", "assay": "NCI In Vivo Anticancer Drug Screen. Data for tumor model L1210 Leukemia (subcutaneous) in B6D2F1 (BDF1) mice", "details": "T/C endpoint: median survival time, higher T/C = longer survival", "summary_of_the_method": "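Read-out: T/C ratio, i.e. survival or tumor size in treated mice over that in vehicle-treated controls, from mice bearing transplantable tumors.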", "key": {"[1]": {"details": "dose: 14.0 mg/kg/injection, schedule: Q01DX Z (sc), vehicle: carboxymethylcellulose (CMC)"}, "[2]": {"details": "dose: 500.0 mg/kg/injection, schedule: Q01DX Z (sc), vehicle: methylcellulose (MC)"}}, "note": "The list does not hold the whole screen: it is rich in T/C values a quarter to a half above the control, in often repeated tests (any T/C) and in doses without a T/C. Further doses and runs are listed elsewhere. T/C: endpoint of the treated group in % of that of the vehicle group. For survival time, this PubChem deposit counts one and a half times the control or more as active, and values a quarter to a half above the control carry no call in these data; other NCI protocols may use other cut-offs. Schedule codes are those of the source, taken here to give the interval after Q, in days (D) or hours (H), and the number of doses after X. Some schedule codes hold Z or #, which are not explained here. Some doses were run more than once; their values stand side by side, smallest first. Some T/C values carry the count of animals alive at the toxicity check (mostly the fifth day); without a count, all were alive then.", "data": [{"molecule": "C[n+]1ccc(Nc2ccc(NC(=O)c3ccc(Nc4cc[n+](C)c5ccc(N)cc45)cc3N)cc2)cc1", "values": [{"measurement": "T/C", "setting": "dose: 1.0 mg/kg/injection, schedule: Q03HX024 (ip), vehicle: water", "value": "144 % of control"}, {"measurement": "T/C", "setting": "dose: 8.0 mg/kg/injection, schedule: Q03HX008 (sc), vehicle: water", "value": "130 % of control"}, {"measurement": "T/C", "setting": "dose: 16.0 mg/kg/injection, schedule: Q04DX003 (sc), vehicle: water", "value": "140 % of control"}, {"measurement": "T/C", "setting": "dose: 32.0 mg/kg/injection, schedule: Q01DX001 (sc), vehicle: water", "value": "130 % of control"}, {"measurement": "T/C", "setting": "dose: 64.0 mg/kg/injection, schedule: Q03HX008 (sc), vehicle: water", "value": "145 % of control"}]}, {"molecule": "Cc1cccc(C)c1NC(=O)N(CCCl)N=O", "values": [{"measurement": "T/C", "setting": "[1]", "value": "125 % of control"}]}, {"molecule": "O=C(Nc1ccc(C2=NCCN2)cc1)c1ccc(NC(=O)c2ccc(C3=NCCN3)cc2)cc1", "values": [{"measurement": "T/C", "setting": "dose: 65.0 mg/kg/injection, schedule: Q01DX Z (sc), vehicle: methylcellulose (MC)", "value": "145 % of control"}, {"measurement": "T/C", "setting": "dose: 108.0 mg/kg/injection, schedule: Q01DX Z (sc), vehicle: methylcellulose (MC)", "value": "130 % of control"}]}, {"molecule": "CC(=O)NC1=C(N2CC2)C(=O)C(NC(C)=O)=C(N2CC2)C1=O", "values": [{"measurement": "T/C", "setting": "dose: 0.65 mg/kg/injection, schedule: Q01DX Z (sc), vehicle: saline", "value": "131 % of control"}, {"measurement": "T/C", "setting": "dose: 3.0 mg/kg/injection, schedule: Q01DX Z (sc), vehicle: saline", "value": "136 % of control"}]}, {"molecule": "CN(C)CCNc1ccc([N+](=O)[O-])c2sc3ccccc3c(=O)c12", "values": [{"measurement": "T/C", "setting": "dose: 108.0 mg/kg/injection, schedule: Q01DX Z (sc), vehicle: carboxymethylcellulose (CMC)", "value": "138 % of control"}]}, {"molecule": "O=c1[nH]cc(F)c(=O)[nH]1", "values": [{"measurement": "T/C", "setting": "dose: 8.0 mg/kg/injection, schedule: Q01DX Z (sc), vehicle: saline", "value": "133 % of control"}, {"measurement": "T/C", "setting": "dose: 14.0 mg/kg/injection, schedule: Q01DX009 (sc), vehicle: saline", "value": "125 % of control"}, {"measurement": "T/C", "setting": "dose: 14.0 mg/kg/injection, schedule: Q01DX013 (sc), vehicle: saline", "value": "148 % of control"}, {"measurement": "T/C", "setting": "dose: 23.0 mg/kg/injection, schedule: Q01DX009 (ip), vehicle: saline", "value": "132 % of control"}, {"measurement": "T/C", "setting": "dose: 32.0 mg/kg/injection, schedule: Q01DX Z (sc), vehicle: saline", "value": "138 % of control"}, {"measurement": "T/C", "setting": "dose: 38.9 mg/kg/injection, schedule: Q01DX Z (sc), vehicle: saline", "value": "141 % of control [9 of 10 alive]"}, {"measurement": "T/C", "setting": "dose: 39.0 mg/kg/injection, schedule: Q01DX Z (sc), vehicle: saline", "value": "145 % of control"}, {"measurement": "T/C", "setting": "dose: 39.0 mg/kg/injection, schedule: Q04DX003 (ip), vehicle: saline", "value": "129 % of control"}, {"measurement": "T/C", "setting": "dose: 39.0 mg/kg/injection, schedule: Q04DX003 (sc), vehicle: saline", "value": "128 % of control"}, {"measurement": "T/C", "setting": "dose: 65.0 mg/kg/injection, schedule: Q01DX Z (sc), vehicle: saline, evaluated on day 34", "value": "136 % of control"}, {"measurement": "T/C", "setting": "dose: 65.0 mg/kg/injection, schedule: Q01DX Z (sc), vehicle: saline, run until all animals had died", "value": "135 and 140 % of control"}, {"measurement": "T/C", "setting": "dose: 65.0 mg/kg/injection, schedule: Q04DX003 (ip), vehicle: saline", "value": "142 % of control"}, {"measurement": "T/C", "setting": "dose: 108.0 mg/kg/injection, schedule: Q01DX Z (sc), vehicle: saline", "value": "130 and 135 % of control"}, {"measurement": "T/C", "setting": "dose: 180.0 mg/kg/injection, schedule: Q01DX Z (sc), vehicle: saline", "value": "130 % of control"}]}, {"molecule": "Nc1nc(=S)c2ncn(C3CC(O)C(CO)O3)c2[nH]1", "note": "(stereo not drawn)", "values": [{"measurement": "T/C", "setting": "dose: 300.0 mg/kg/injection, schedule: Q02DX005 (sc), vehicle: saline, evaluated on day 7", "value": "145 % of control"}, {"measurement": "T/C", "setting": "dose: 300.0 mg/kg/injection, schedule: Q02DX005 (sc), vehicle: saline, evaluated on day 30", "value": "145 % of control"}]}, {"molecule": "CN1c2c(nc(N)[nH]c2=O)NCC1CCNc1ccc(C(=O)NC(CCC(=O)O)C(=O)O)cc1", "note": "(stereo not drawn)", "values": [{"measurement": "T/C", "setting": "dose: 100.0 mg/kg/injection, schedule: Q01DX012 (ip), vehicle: other", "value": "133 % of control"}, {"measurement": "T/C", "setting": "dose: 200.0 mg/kg/injection, schedule: Q01DX012 (ip), vehicle: other", "value": "144 % of control"}, {"measurement": "T/C", "setting": "dose: 400.0 mg/kg/injection, schedule: Q01DX012 (ip), vehicle: other", "value": "144 % of control"}]}, {"molecule": "O=C(O)c1[nH]c(=O)[nH]c(=O)c1F", "values": [{"measurement": "T/C", "setting": "dose: 4.0 mg/kg/injection, schedule: Q01DX Z (sc), vehicle: saline", "value": "133 % of control"}, {"measurement": "T/C", "setting": "dose: 5.0 mg/kg/injection, schedule: Q01DX Z (sc), vehicle: methylcellulose (MC)", "value": "135 % of control"}]}, {"molecule": "N[C@H](C(=O)O)[C@@H]1CC(Cl)=NO1", "values": [{"measurement": "T/C", "setting": "dose: 2.0 mg/kg/injection, schedule: Q01DX009 (sc), vehicle: saline", "value": "135 % of control"}, {"measurement": "T/C", "setting": "dose: 4.0 mg/kg/injection, schedule: Q01DX009 (sc), vehicle: saline", "value": "144 % of control"}, {"measurement": "T/C", "setting": "dose: 16.0 mg/kg/injection, schedule: Q01DX009 (sc), vehicle: saline", "value": "137 % of control"}, {"measurement": "T/C", "setting": "dose: 32.0 mg/kg/injection, schedule: Q01DX009 (sc), vehicle: saline", "value": "135 % of control"}, {"measurement": "T/C", "setting": "dose: 128.0 mg/kg/injection, schedule: Q01DX009 (sc), vehicle: saline", "value": "138 % of control"}]}, {"molecule": "CC(=O)OCC1OC(n2ccc(N)nc2=O)C(OC(C)=O)C1OC(C)=O", "note": "(stereo not drawn)", "values": [{"measurement": "T/C", "setting": "dose: 320.0 mg/kg/injection, schedule: Q01DX Z (sc), vehicle: carboxymethylcellulose (CMC)", "value": "135 % of control"}, {"measurement": "T/C", "setting": "dose: 640.0 mg/kg/injection, schedule: Q01DX Z (oral), vehicle: carboxymethylcellulose (CMC)", "value": "140 % of control"}]}, {"molecule": "CC(C)CSc1ncnc2nc[nH]c12", "values": [{"measurement": "T/C", "setting": "dose: 180.0 mg/kg/injection, schedule: Q01DX Z (sc), vehicle: methylcellulose (MC)", "value": "140 % of control"}, {"measurement": "T/C", "setting": "dose: 300.0 mg/kg/injection, schedule: Q01DX Z (sc), vehicle: methylcellulose (MC)", "value": "140 % of control [8 of 10 alive]"}, {"measurement": "T/C", "setting": "[2]", "value": "140 % of control [9 of 10 alive]"}, {"measurement": "T/C", "setting": "dose: 833.0 mg/kg/injection, schedule: Q01DX Z (sc), vehicle: methylcellulose (MC)", "value": "127 % of control"}]}, {"molecule": "Nc1ccc(OC(=O)Oc2ccc(N)cc2)cc1", "values": [{"measurement": "T/C", "setting": "dose: 300.0 mg/kg/injection, schedule: Q01DX Z (sc), vehicle: carboxymethylcellulose (CMC)", "value": "127 % of control"}, {"measurement": "T/C", "setting": "dose: 500.0 mg/kg/injection, schedule: Q01DX Z (sc), vehicle: carboxymethylcellulose (CMC)", "value": "127 % of control"}]}, {"molecule": "CCCCCCCCCCCCCCCC(=O)OCC1OC(n2ccc(N)nc2=O)C(O)C1O", "note": "(stereo not drawn)", "values": [{"measurement": "T/C", "setting": "dose: 18.75 mg/kg/injection, schedule: Q04DX003 (ip), vehicle: saline", "value": "138 % of control"}, {"measurement": "T/C", "setting": "dose: 37.5 mg/kg/injection, schedule: Q01DX009 (ip), vehicle: saline", "value": "144 % of control"}, {"measurement": "T/C", "setting": "dose: 75.0 mg/kg/injection, schedule: Q01DX009 (ip), vehicle: saline", "value": "133 % of control"}, {"measurement": "T/C", "setting": "dose: 150.0 mg/kg/injection, schedule: Q01DX009 (sc), vehicle: saline", "value": "133 % of control"}, {"measurement": "T/C", "setting": "dose: 300.0 mg/kg/injection, schedule: Q01DX001 (ip), vehicle: saline", "value": "133 % of control"}, {"measurement": "T/C", "setting": "dose: 300.0 mg/kg/injection, schedule: Q01DX001 (sc), vehicle: saline", "value": "134 % of control"}, {"measurement": "T/C", "setting": "dose: 300.0 mg/kg/injection, schedule: Q04DX003 (ip), vehicle: saline", "value": "133 % of control"}, {"measurement": "T/C", "setting": "dose: 300.0 mg/kg/injection, schedule: Q04DX003 (sc), vehicle: saline", "value": "144 % of control"}, {"measurement": "T/C", "setting": "dose: 600.0 mg/kg/injection, schedule: Q01DX001 (sc), vehicle: saline", "value": "133 % of control"}]}, {"molecule": "CCN(O)C(N)=O", "values": [{"measurement": "T/C", "setting": "dose: 375.0 mg/kg/injection, schedule: Q01DX Z (sc), vehicle: methylcellulose (MC)", "value": "129 % of control"}, {"measurement": "T/C", "setting": "[2]", "value": "125 % of control"}]}, {"molecule": "O=c1[nH]c(=O)n([C@H]2CCCO2)cc1F", "values": [{"measurement": "T/C", "setting": "dose: 108.0 mg/kg/injection, schedule: Q01DX009 (ip), vehicle: water", "value": "147 % of control"}, {"measurement": "T/C", "setting": "dose: 108.0 mg/kg/injection, schedule: Q01DX009 (sc), vehicle: water", "value": "135 % of control"}, {"measurement": "T/C", "setting": "dose: 300.0 mg/kg/injection, schedule: Q04DX003 (sc), vehicle: water", "value": "143 % of control"}, {"measurement": "T/C", "setting": "dose: 500.0 mg/kg/injection, schedule: Q04DX003 (ip), vehicle: water", "value": "135 % of control"}]}, {"molecule": "CC(=O)c1ccc(NC(=O)N(CCCl)N=O)cc1", "values": [{"measurement": "T/C", "setting": "dose: 8.4 mg/kg/injection, schedule: Q01DX Z (sc), vehicle: carboxymethylcellulose (CMC)", "value": "127 % of control"}, {"measurement": "T/C", "setting": "[1]", "value": "138 % of control"}, {"measurement": "T/C", "setting": "dose: 23.0 mg/kg/injection, schedule: Q01DX Z (sc), vehicle: carboxymethylcellulose (CMC)", "value": "144 % of control"}]}]}
